Values from PubChem BioAssay AID1508597 (Cure First, 2020).

Purpose: 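Knock-downs altering ovarian cancer cell survival with or without PARP inhibitor rucaparib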 (primary screen)
Cells: human ovarian carcinoma lines grown from tumours: OCI-P5x (papillary serous) and OCI-C5x (clear cell)
Reagent: siRNA pool against human genes, 1.25 pmol siRNA per well
Time to read-out: 72 h or 96 h, depending on the cell culture
Treatment: rucaparib 20 µM (about IC30) or vehicle, present until read-out
Detection: 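ATP luminescence measured at 72 or 96 h according to the culture, then normalised and expressed as percent viability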
Scale: viability, normalised: higher = more viable cells remaining
Hit rule: 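Active when normalised viability falls below 80 percent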
Meaning of the calls: active = viability under 80%; inactive = viability 80% or more
The whole screen tested about 2,100 reagents; this is an unselected part. 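Calls flag viability under 80% in either arm, not effects specific to rucaparib; the reference for percent is not stated.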 A number with no mark means an inactive call. Not given: the 100% reference.

For STK35 (serine/threonine kinase 35), rucaparib or vehicle Rucaparib, cell line OCI-C5x (clear cell), technical replicate 1, the values are viability, normalised (%) = 49.2 (active).
With STK35 (serine/threonine kinase 35), rucaparib or vehicle Rucaparib, cell line OCI-C5x (clear cell), technical replicate 2 the deposit lists viability, normalised (%) = 56.6 (active).
STK35 (serine/threonine kinase 35), rucaparib or vehicle Rucaparib, cell line OCI-C5x (clear cell), technical replicate 3 showed viability, normalised (%) = 41.3 (active).
With STK35 (serine/threonine kinase 35), rucaparib or vehicle Rucaparib, cell line OCI-P5x (serous), technical replicate 1 the deposit lists viability, normalised (%) = 82.9.
With STK35 (serine/threonine kinase 35), rucaparib or vehicle Rucaparib, cell line OCI-P5x (serous), technical replicate 2, the entry reads viability, normalised (%) = 73.9 (active).
For STK35 (serine/threonine kinase 35), rucaparib or vehicle Rucaparib, cell line OCI-P5x (serous), technical replicate 3, the entry reads viability, normalised (%) = 74.9 (active).
With STK35 (serine/threonine kinase 35), rucaparib or vehicle Vehicle, cell line OCI-C5x (clear cell), technical replicate 1, the entry reads viability, normalised (%) = 46.9 (active).
STK35 (serine/threonine kinase 35), rucaparib or vehicle Vehicle, cell line OCI-C5x (clear cell), technical replicate 2 scored viability, normalised (%) = 57.7 (active).
STK35 (serine/threonine kinase 35), rucaparib or vehicle Vehicle, cell line OCI-C5x (clear cell), technical replicate 3 showed viability, normalised (%) = 42.9 (active).
With STK35 (serine/threonine kinase 35), rucaparib or vehicle Vehicle, cell line OCI-P5x (serous), technical replicate 1, the values are viability, normalised (%) = 75.2 (active).
With STK35 (serine/threonine kinase 35), rucaparib or vehicle Vehicle, cell line OCI-P5x (serous), technical replicate 2, the entry reads viability, normalised (%) = 62.9 (active).
With STK35 (serine/threonine kinase 35), rucaparib or vehicle Vehicle, cell line OCI-P5x (serous), technical replicate 3, the entry reads viability, normalised (%) = 63.5 (active).
FES (FES proto-oncogene, tyrosine kinase), rucaparib or vehicle Rucaparib, cell line OCI-C5x (clear cell), technical replicate 1 scored viability, normalised (%) = 27 (active).
With FES (FES proto-oncogene, tyrosine kinase), rucaparib or vehicle Rucaparib, cell line OCI-C5x (clear cell), technical replicate 2 the deposit lists viability, normalised (%) = 29.7 (active).
FES (FES proto-oncogene, tyrosine kinase), rucaparib or vehicle Rucaparib, cell line OCI-C5x (clear cell), technical replicate 3 scored viability, normalised (%) = 37.5 (active).
With FES (FES proto-oncogene, tyrosine kinase), rucaparib or vehicle Rucaparib, cell line OCI-P5x (serous), technical replicate 1, the values are viability, normalised (%) = 66.6 (active).
For FES (FES proto-oncogene, tyrosine kinase), rucaparib or vehicle Rucaparib, cell line OCI-P5x (serous), technical replicate 2, the values are viability, normalised (%) = 76 (active).
For FES (FES proto-oncogene, tyrosine kinase), rucaparib or vehicle Rucaparib, cell line OCI-P5x (serous), technical replicate 3, the entry reads viability, normalised (%) = 83.4.
With FES (FES proto-oncogene, tyrosine kinase), rucaparib or vehicle Vehicle, cell line OCI-C5x (clear cell), technical replicate 1, the values are viability, normalised (%) = 30.6 (active).
For FES (FES proto-oncogene, tyrosine kinase), rucaparib or vehicle Vehicle, cell line OCI-C5x (clear cell), technical replicate 2 the deposit lists viability, normalised (%) = 47.1 (active).
For FES (FES proto-oncogene, tyrosine kinase), rucaparib or vehicle Vehicle, cell line OCI-C5x (clear cell), technical replicate 3, the values are viability, normalised (%) = 46.7 (active).
FES (FES proto-oncogene, tyrosine kinase), rucaparib or vehicle Vehicle, cell line OCI-P5x (serous), technical replicate 1 scored viability, normalised (%) = 75 (active).
FES (FES proto-oncogene, tyrosine kinase), rucaparib or vehicle Vehicle, cell line OCI-P5x (serous), technical replicate 2 scored viability, normalised (%) = 70.2 (active).
FES (FES proto-oncogene, tyrosine kinase), rucaparib or vehicle Vehicle, cell line OCI-P5x (serous), technical replicate 3 showed viability, normalised (%) = 71.2 (active).
GADD45A (growth arrest and DNA damage inducible alpha), rucaparib or vehicle Rucaparib, cell line OCI-C5x (clear cell), technical replicate 1 showed viability, normalised (%) = 68 (active).
GADD45A (growth arrest and DNA damage inducible alpha), rucaparib or vehicle Rucaparib, cell line OCI-C5x (clear cell), technical replicate 2 scored viability, normalised (%) = 82.8.
With GADD45A (growth arrest and DNA damage inducible alpha), rucaparib or vehicle Rucaparib, cell line OCI-C5x (clear cell), technical replicate 3, the values are viability, normalised (%) = 90.4.
For GADD45A (growth arrest and DNA damage inducible alpha), rucaparib or vehicle Rucaparib, cell line OCI-P5x (serous), technical replicate 1, the values are viability, normalised (%) = 79.7 (active).
For GADD45A (growth arrest and DNA damage inducible alpha), rucaparib or vehicle Rucaparib, cell line OCI-P5x (serous), technical replicate 2, the entry reads viability, normalised (%) = 81.1.
With GADD45A (growth arrest and DNA damage inducible alpha), rucaparib or vehicle Rucaparib, cell line OCI-P5x (serous), technical replicate 3 the deposit lists viability, normalised (%) = 78.2 (active).
GADD45A (growth arrest and DNA damage inducible alpha), rucaparib or vehicle Vehicle, cell line OCI-C5x (clear cell), technical replicate 1 showed viability, normalised (%) = 64.4 (active).
For GADD45A (growth arrest and DNA damage inducible alpha), rucaparib or vehicle Vehicle, cell line OCI-C5x (clear cell), technical replicate 2 the deposit lists viability, normalised (%) = 71.1 (active).
For GADD45A (growth arrest and DNA damage inducible alpha), rucaparib or vehicle Vehicle, cell line OCI-C5x (clear cell), technical replicate 3, the entry reads viability, normalised (%) = 73.7 (active).
GADD45A (growth arrest and DNA damage inducible alpha), rucaparib or vehicle Vehicle, cell line OCI-P5x (serous), technical replicate 1 gave viability, normalised (%) = 90.1.
With GADD45A (growth arrest and DNA damage inducible alpha), rucaparib or vehicle Vehicle, cell line OCI-P5x (serous), technical replicate 2, the values are viability, normalised (%) = 109.
GADD45A (growth arrest and DNA damage inducible alpha), rucaparib or vehicle Vehicle, cell line OCI-P5x (serous), technical replicate 3 showed viability, normalised (%) = 72.5 (active).

Part of the list above, reformatted:
{"Target gene":"STK35 (serine/threonine kinase 35)","rucaparib or vehicle":"Vehicle","cell line":"OCI-C5x (clear cell)","technical replicate":"3","viability, normalised (%)":"42.9 (active)"}
{"Target gene":"STK35 (serine/threonine kinase 35)","rucaparib or vehicle":"Vehicle","cell line":"OCI-P5x (serous)","technical replicate":"1","viability, normalised (%)":"75.2 (active)"}
{"Target gene":"STK35 (serine/threonine kinase 35)","rucaparib or vehicle":"Vehicle","cell line":"OCI-P5x (serous)","technical replicate":"2","viability, normalised (%)":"62.9 (active)"}
